PubChem BioAssay AID1224828, NIAID – 2016
The whole screen tested about 17,000 reagents; shown is an unselected part. 762 of them (4.5%) were called active. 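Active calls include both raised and lowered p65 entry, mostly lowered; wells with fewer than 50 cells lack a z-score.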 The raw values are shown without normalisation. Entries without a mark were called inactive. The numbers tell different reagents against one gene apart.

- Assay: 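Find genes required for NF-kappaB p65 moving into the nucleus after LPS in mouse macrophages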 (primary screen)
- System: mouse RAW264.7 G9 macrophage reporter cells (GFP-p65, Tnf promoter-mCherry)
- Reagent: siRNA pool against mouse genes, 100 nM
- Duration: 2 days siRNA transfection, then 40 min LPS before fixation
- Challenge: LPS (Salmonella minnesota R595) at 10 ng/ml
- Measured: 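Imaged p65 nuclear translocation ratio, normalised to the plate median, converted to robust z-scores and averaged across two replicates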
- Direction: p65 translocation robust z-score: higher = more nuclear NF-kappaB p65 after LPS than the plate median; nuclear/cytoplasmic p65 ratio: higher = more nuclear NF-kappaB p65
- Hit rule: 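Active if robust z is above 3.3 (negative regulators) or below -1.56, the Tlr4 control median (positive regulators); activity score 50 or more; control wells not called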
- Meaning of the calls: active = hit (p65 shift raised or lowered); inactive = no clear change

After knock-down of Stag2, the record shows nuclear/cytoplasmic p65 ratio, rep 1 = 1.27; nuclear/cytoplasmic p65 ratio, rep 2 = 1.43; low cell count flag fewer than 50 cells per well; well left out of scoring.
Silencing of Gpr141 gave: p65 translocation robust z-score -0.03; nuclear/cytoplasmic p65 ratio, rep 1 = 1.5; nuclear/cytoplasmic p65 ratio, rep 2 = 1.58; low cell count flag enough cells to score.
After knock-down of Podxl the results were nuclear/cytoplasmic p65 ratio, rep 1 = 1.57; nuclear/cytoplasmic p65 ratio, rep 2 = 1.51; low cell count flag fewer than 50 cells per well; well left out of scoring.
Against Atp6v1g1 the deposit lists p65 translocation robust z-score -0.69; nuclear/cytoplasmic p65 ratio, rep 1 = 1.46; nuclear/cytoplasmic p65 ratio, rep 2 = 1.45; low cell count flag enough cells to score.
After knock-down of Btbd16, the screen gave p65 translocation robust z-score -1.38; nuclear/cytoplasmic p65 ratio, rep 1 = 1.27; nuclear/cytoplasmic p65 ratio, rep 2 = 1.19; low cell count flag enough cells to score.
Erv3 showed nuclear/cytoplasmic p65 ratio, rep 1 = 1.46; nuclear/cytoplasmic p65 ratio, rep 2 = 1.67; low cell count flag fewer than 50 cells per well; well left out of scoring.
With knock-down of Csnk1g3 #1 the results were nuclear/cytoplasmic p65 ratio, rep 1 = 2.01; nuclear/cytoplasmic p65 ratio, rep 2 = 1.43; low cell count flag fewer than 50 cells per well; well left out of scoring.
Knock-down of Csnk1g3 #2 came out at: p65 translocation robust z-score 0.04; nuclear/cytoplasmic p65 ratio, rep 1 = 1.41; nuclear/cytoplasmic p65 ratio, rep 2 = 1.55; low cell count flag enough cells to score.
Foxm1 gave p65 translocation robust z-score -0.17; nuclear/cytoplasmic p65 ratio, rep 1 = 1.36; nuclear/cytoplasmic p65 ratio, rep 2 = 1.4; low cell count flag enough cells to score.
With knock-down of Clstn2 the results were p65 translocation robust z-score 0.71; nuclear/cytoplasmic p65 ratio, rep 1 = 1.58; nuclear/cytoplasmic p65 ratio, rep 2 = 1.45; low cell count flag enough cells to score.
With knock-down of Gm4827 the results were p65 translocation robust z-score 1.58; nuclear/cytoplasmic p65 ratio, rep 1 = 1.78; nuclear/cytoplasmic p65 ratio, rep 2 = 1.79; low cell count flag enough cells to score.
Nuf2 showed nuclear/cytoplasmic p65 ratio, rep 1 = 1.39; nuclear/cytoplasmic p65 ratio, rep 2 = 1.44; low cell count flag fewer than 50 cells per well; well left out of scoring.

Records above whose target name starts with G or g:
Gpr141: p65 translocation robust z-score = -0.03; nuclear/cytoplasmic p65 ratio, rep 1 = 1.5; nuclear/cytoplasmic p65 ratio, rep 2 = 1.58; low cell count flag = enough cells to score
Gm4827: p65 translocation robust z-score = 1.58; nuclear/cytoplasmic p65 ratio, rep 1 = 1.78; nuclear/cytoplasmic p65 ratio, rep 2 = 1.79; low cell count flag = enough cells to score
